From paper PMC10163288 come the findings set out here.

The other results are listed elsewhere or left out. A value given as a limit tells only on which side of the number the result lay.

The labels stand for the following.
B1: il10ra_site1_normal_mot_HHH_b1_00999_000000080_0001_41_55_H_._HHH_b1_01452_0001_0000100004_0000001_0 (protein)
chain: SSSSDEEEVREEVEELLEEAKHVPDPRELTRLLQEAVRLALELGDQELLRLVWKVVKELGSSSSS
B2: il10ra_site1_normal_mot_HHH_b2_00984_000000042_0001_1_20_H_._HHH_b2_06425_af2_0001_0000300011_0000001_0 (protein)
chain: SSSSDEELEEELRELIKEVKELLERGNYEEASRLAQEILRLIYRLGDEELLQELWEVIKRGSSSS
B3: il10ra_site1_sap_21_mot_HHH_b2_02463_af2_000000222_0001_1_19_H_._HHH_eva_0321_0002_0000300010_0000002_0_0001 (protein)
chain: SSSSDEELEERVRELLEEAREVDAERAYKLLKEAIELAIENRDPELERLVMEVIREWLKRSSSSS
B4: il10ra_site1_normal_mot_e933875d0a4b1ebfe8e667f01481c16a_0001_1_af2_000000222_0001_49_63_H_._HHH_b2_03167_0001_0000100007_0000001_0 (protein)
chain: SSSSDETYRISREAIEEASELFERGNPEEAERVVEEALEEVRELNDPAAVFALENLLRAINSSSS
B5: il10ra_site1_sap_11_mot_05ca327611f5605f0dd8494b449afcbf_0001_1_000000248_0001_35_51_H_._HHH_b1_05848_af2_0001_0000100009_0000001_0_0001_af2pred_0001 (protein)
chain: SSSSSSSELERLLEEIEEALERGDPQEALRLSREAVRLAAELNDEEVLEKLLELVKKIFSSSSSS
B6: il10ra_site1_normal_mot_HHH_b2_03328_af2_000000127_0001_1_19_H_._HHH_b1_03010_0001_0000100001_0000002_0 (protein)
chain: SSSSTEELYRLSRKAAELLAEGDKEEAEKVVEEALELAEELNNPNFLFAIRLLLESIEELSSSSS
B7: il10ra_site1_normal_mot_HHH_b2_02757_000000230_0001_1_19_H_._HHH_b2_07153_0001_0000100007_0000002_1 (protein)
chain: SSSSSSDEEEVEELLEEARHIEDREERAELLLEALRIAYEAKNPELIQLVWEAIREIYGSSSSSS
B8: il10ra_site1_sap_19_mot_0f4c98a20d629a3dc592d0b946cdb135_0001_1_000000277_0001_1_13_H_._HHH_b1_01110_0001_0000200012_0000001_0_0001_af2pred_0001 (protein)
chain: SSSSSDAAEEALRLLREALELLANGDEEQAREVLEEAEELVKEAGNLILKISIELALRQLNSSSS
B9: il10ra_site1_normal_mot_HHH_b1_08508_000000230_0001_42_56_H_._382ff8651c9ca8077dbaa913212a5f00_0001_0001_0000900015_0000001_0 (protein)
chain: SVILISIRYALRAGNPEAAERAIEIALRSAKEQNDPRAEELLEEILELVRNGNPEEAERLLEEIE
B10: il10ra_site1_normal_mot_HHH_b1_03353_af2_000000170_0001_1_18_H_._HHH_b2_01529_0001_0000100002_0000001_0 (protein)
chain: SSSSSEAYEVARKAIEKARRLLEEGDDEEAERVLEEAIEIAEELGNFAAVFALEHLLRVLRSSSS
B11: il10ra_site1_sap_15_mot_HHH_b2_00800_af2_000000047_0001_1_20_H_._HHH_b2_08274_af2_0001_0000500036_0000002_0_0001_af2pred_0001 (protein)
chain: SSSSSSEEKREQVEELLEEAKHIPDPLERAFVLVRAYALANRVNDPELKKLVREVAIELSSSSSS
B12: il10ra_site1_sap_23_mot_HHH_b1_08009_000000194_0001_1_19_H_._HHH_b2_08195_0001_0000400011_0000001_0_0001 (protein)
chain: SSSSDADELFREVKRLLEEAAEIPDPEEARKLLEEALELAEEAGNRVLAMNLEYMLRVLRSSSSS
B13: il10ra_site1_sap_22_mot_HHH_b1_04638_000000131_0001_21_38_H_._HHH_b1_03122_0001_0000200033_0000001_0_0001 (protein)
chain: SSSSDEEEAALRFWERLLKQALELGNERVLKSALRAARWLAEHANDPEALEVIEELAERGSSSSS
B14: il10ra_site1_sap_10_mot_HHH_b1_05704_af2_000000048_0001_1_18_H_._HHH_b2_04382_0001_0000100002_0000001_0_0001_af2pred_0001 (protein)
chain: SSSSSEEEERVELALRFVKFLLKAGDPEAARFFVEWALEKAKELGNEELEEEAEELLREARSSSS
B15: il10ra_site1_normal_mot_HHH_b2_07144_000000289_0001_1_18_H_._HHH_b2_07034_0001_0000100011_0000002_1 (protein)
chain: SSSSDSEEIYRLSREAAELLREGNPEEAEEVLEEALRLAEEAGNFSILFNLEHLLRDIRGSSSSS
B16: il10ra_site1_sap_13_mot_HHH_b1_06881_000000249_0001_1_19_H_._1c3f67cdea6c6d4fbd4c31e186659400_0001_af2_0001_0000100004_0000001_0_0001 (protein)
chain: SSSSSDNEEALRLSVEAFRLALRGDPEEAREVLEEALELAERAGNERLAEIIEDLLRLLSSSSSS
B17: il10ra_site1_sap_22_mot_HHH_b2_00345_af2_000000013_0001_42_56_H_._3a0bc7445a4fb29c41f626ef8957750b_0001_0001_0000200007_0000001_1_0001 (protein)
chain: SSSSSEEHQEALRLSIRLMRALFRGDEEEAEKLLEKLEELAKEVGDPELELAVRAAKISLSSSSS
B18: il10ra_site1_normal_mot_HHH_b2_06795_000000133_0001_42_56_H_._HHH_b1_01903_0001_0000100008_0000001_0_af2pred_0001 (protein)
chain: SSSSDDDERLVRLAIKIAERLLEEGDPEAARFLVEAAKQIAEKLNNPELLELLEELLEEIRSSSS
B19: il10ra_site1_sap_12_mot_b26a303360aa2756ef5b79665ce52f45_0001_000000179_0001_1_11_H_._HHH_b2_03096_0001_0000100002_0000001_0_0001 (protein)
chain: SSSSSAQEEARELLEEAEELLRQGNPEEALKALQRAVRLAIRASDEELLQEIWRLVLEAASSSSS
B20: il10ra_site1_sap_20_mot_HHH_b1_05254_000000006_0001_1_19_H_._HHH_b1_07585_0001_0000200008_0000002_0_0001_af2pred_dldesign_0_af2pred (protein)
chain: SSSSSAAEEAAIDRAVAYAKWLSKYDPEAAKYILQTALEFAESIGHPRAKEIRELLKELESSSSS
B21: il10ra_site1_normal_mot_HHH_b1_05056_000000217_0001_1_20_H_._HHH_b2_03886_0001_0000900047_0000001_0 (protein)
chain: SSSSSDEEYEERVEELLERAEENPEHAQELLQRAVQVAFEAKDPELLRLIWRVVRELAKSSSSSS
B22: il10ra_site1_sap_19_mot_HHH_b2_01032_000000296_0001_1_18_H_._HHH_b2_05460_af2_0001_0000100004_0000002_0_0001 (protein)
chain: SSSSSRDLEQRARALLWFARLISDPEARRIALEEAEKVAEEAGDEELLKEIREELEEVGSSSSSS
B23: il10ra_site1_normal_mot_ems_3hM_3349_af2_000000045_0001_25_42_H_._266e3d37dc3f395c50bcd643833a3814_0001_0001_0000400019_0000001_0 (protein)
chain: PEEAEELARRFKEGDPEAEELVEELVAELLGIPPELVRKALELQEEQIGDPEQAVKALIAVALAN
B24: il10ra_site1_normal_mot_HHH_b1_03094_000000294_0001_1_20_H_._HHH_b2_05364_0001_0000100007_0000001_0 (protein)
chain: SSSSDEENQQALELSLEALRLALRGNPEEAKEVLEEALELAREAGNEQLVRTLEELLKALGSSSS

This assay has as its target il10ra, Q13651. Kind of assay: yeast display titration.
On to B1, for which the apparent Kd (as a rule, a dissociation constant that holds for the conditions of the assay) is “inactive: no binding seen”.
In the case of B2, the “apparent Kd” value is “inactive: no binding seen”.
B3: the “apparent Kd” value was “inactive: no binding seen”.
As for B4, the “apparent Kd” value is “inactive: no binding seen”.
In the case of B5 it was “inactive: no binding seen”; in that of B6, “inactive: no binding seen”.
In the case of B7 it was “inactive: no binding seen”; in that of B8, “inactive: no binding seen”; in that of B9, “inactive: no binding seen”.
In the case of B10 it was inactive: > 0.826 µM.
Regarding B11, the “apparent Kd” value was “inactive: no binding seen”.
Take B12: the “apparent Kd” value was “inactive: no binding seen”.
The same measure for B13: “inactive: no binding seen”; for B14: “inactive: no binding seen”; for B15: “inactive: no binding seen”.
Turning to B16, the “apparent Kd” value is “inactive: no binding seen”.
Regarding B17, the “apparent Kd” value was “inactive: no binding seen”.
In the case of B18, the “apparent Kd” value is “inactive: no binding seen”.
Take B19: the “apparent Kd” value is “inactive: no binding seen”.
For B20, the “apparent Kd” value is “inactive: no binding seen”.
In the case of B21 it was “inactive: no binding seen”.
On to B22, for which the “apparent Kd” value was “inactive: no binding seen”.
As to B23, the “apparent Kd” value is “inactive: no binding seen”.
The same measure for B24: “inactive: no binding seen”.
